In publication PMC2866665:
These are yes or no findings as the source states them, for the method shown. Some binding calls cover weakened binding; strength is not graded here.

Biological target: T1, Rad23 ortholog in the fly (Drosophila melanogaster) (UniProt Q9V3W9)
T1 sequence: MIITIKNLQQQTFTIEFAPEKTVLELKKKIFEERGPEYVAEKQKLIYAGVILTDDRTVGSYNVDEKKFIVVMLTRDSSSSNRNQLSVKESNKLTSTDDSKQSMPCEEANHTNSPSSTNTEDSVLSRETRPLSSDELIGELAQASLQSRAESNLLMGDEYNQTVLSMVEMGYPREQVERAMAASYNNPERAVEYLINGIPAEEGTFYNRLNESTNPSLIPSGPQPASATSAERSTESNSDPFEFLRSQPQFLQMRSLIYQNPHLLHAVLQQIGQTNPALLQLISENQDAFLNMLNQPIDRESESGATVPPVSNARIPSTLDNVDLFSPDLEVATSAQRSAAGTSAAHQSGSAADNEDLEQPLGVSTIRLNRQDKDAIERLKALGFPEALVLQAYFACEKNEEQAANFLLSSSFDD
Assay: two-hybrid; yeast two-hybrid assay; data not shown; bait and prey not told

binding: binds
B1: PNGase-like (Pngl), Drosophila melanogaster PNGase ortholog (protein, UniProt Q7KRR5 1-631)
chain: MVDINLECVHQIEPKTRSAGQQQQERGLKEAYLEAVRILLVLLENILAQPENSMFRTIRQENKAIKEKLLSLPGCERLLEAIGFVRAPSSNAYTLPTEVSLQQVKKYRDALSERRTAWLNGTVSKSPPQQSTTSTTPLFIKPSVEYRHRIAFPRVLRTNNNFLQSLELYSDAVMQYEDNLLLATGRTLIPVEELTEMASEKLIDIQDQIASGERQEKEPCVRDLLLVELVNWFNTQFFQWVNNIPCRVCGSEESRLRRTEREGDIRVEVTVCCGQESKFYRYNDISQLLVSRKGRCGEYANCFTFLCRALDYDARIVHSHFDHVWTEVYSEAQMRWLHVDPSENVIDSPLMYQHGWKRHIDYILAYSRDDIQDVTWRYTNDHQKILHLRKLCGEKEMVQTLDAIRAKRRQNCTADRKLFLSQRNMYEVIGLTLERKPTENELKGRSSGSLSWRQSRGEHTFTNIFVFNLSATELQKRQLNVRYSCATDTYERYAKEGEHITILDSYKTWQKAQFSSKNIFRKVERDWKMAYLARLEDTDCGEIAWTFDFSKTNLKVKSYNLVFETKTFGDGKISVTVDATDGSASVENATGFKIVAKLTGGKGDVAWQHTQLFRQSLNSRDYPFDLQVQLH
